Here are results for 23 sequences from publication PMC7862700.

Amino acid sequences for entries named in this document (tags omitted). A change or cut given only in a name is not applied to a line headed by its entry.
UniProt P32519: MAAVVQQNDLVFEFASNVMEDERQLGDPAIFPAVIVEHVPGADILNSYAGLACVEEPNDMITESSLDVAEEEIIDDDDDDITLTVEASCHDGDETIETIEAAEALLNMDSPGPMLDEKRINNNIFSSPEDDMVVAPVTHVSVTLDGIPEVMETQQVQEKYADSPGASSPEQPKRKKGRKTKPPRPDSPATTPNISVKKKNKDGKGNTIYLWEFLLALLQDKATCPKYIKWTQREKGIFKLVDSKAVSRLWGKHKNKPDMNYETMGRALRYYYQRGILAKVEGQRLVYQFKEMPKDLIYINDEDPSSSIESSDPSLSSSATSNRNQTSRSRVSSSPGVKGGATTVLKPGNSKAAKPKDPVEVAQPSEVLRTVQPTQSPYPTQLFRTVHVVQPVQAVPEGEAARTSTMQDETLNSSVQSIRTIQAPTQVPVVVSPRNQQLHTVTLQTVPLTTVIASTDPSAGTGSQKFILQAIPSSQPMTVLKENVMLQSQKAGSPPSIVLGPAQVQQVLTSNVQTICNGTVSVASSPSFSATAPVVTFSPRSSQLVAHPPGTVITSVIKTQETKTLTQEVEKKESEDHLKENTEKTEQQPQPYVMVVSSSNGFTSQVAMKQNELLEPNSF
UniProt P50549: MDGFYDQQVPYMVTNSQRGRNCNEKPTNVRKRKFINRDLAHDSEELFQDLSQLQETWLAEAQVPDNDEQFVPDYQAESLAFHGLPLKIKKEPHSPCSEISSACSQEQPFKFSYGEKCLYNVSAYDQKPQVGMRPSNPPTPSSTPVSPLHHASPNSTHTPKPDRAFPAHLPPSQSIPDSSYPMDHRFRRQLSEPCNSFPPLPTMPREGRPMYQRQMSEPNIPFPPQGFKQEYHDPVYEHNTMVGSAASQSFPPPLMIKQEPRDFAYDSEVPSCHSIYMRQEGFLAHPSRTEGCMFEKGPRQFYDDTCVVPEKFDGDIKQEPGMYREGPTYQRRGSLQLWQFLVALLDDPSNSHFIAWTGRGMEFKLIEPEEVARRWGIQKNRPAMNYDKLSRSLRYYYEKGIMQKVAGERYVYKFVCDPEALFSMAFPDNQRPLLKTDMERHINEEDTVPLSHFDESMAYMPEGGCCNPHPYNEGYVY

Holding throughout (assay): DAPPL (digital affinity profiling via proximity ligation, sequencing)
Common to all, as to conditions: 10 mM Tris-HCl pH 7.5, 50 mM NaCl, 1 mM DTT, 4% glycerol, room temperature, 30 min; GST-TFs on glutathione beads, 16-mer random dsDNA library, 0.1% …; high values mean tight binding; double strand, one strand shown; scale: fold enrichment (6-mer frequency, TF over GST control)

Test [1] addresses T1, ERG (UniProt P11308).
T1 sequence: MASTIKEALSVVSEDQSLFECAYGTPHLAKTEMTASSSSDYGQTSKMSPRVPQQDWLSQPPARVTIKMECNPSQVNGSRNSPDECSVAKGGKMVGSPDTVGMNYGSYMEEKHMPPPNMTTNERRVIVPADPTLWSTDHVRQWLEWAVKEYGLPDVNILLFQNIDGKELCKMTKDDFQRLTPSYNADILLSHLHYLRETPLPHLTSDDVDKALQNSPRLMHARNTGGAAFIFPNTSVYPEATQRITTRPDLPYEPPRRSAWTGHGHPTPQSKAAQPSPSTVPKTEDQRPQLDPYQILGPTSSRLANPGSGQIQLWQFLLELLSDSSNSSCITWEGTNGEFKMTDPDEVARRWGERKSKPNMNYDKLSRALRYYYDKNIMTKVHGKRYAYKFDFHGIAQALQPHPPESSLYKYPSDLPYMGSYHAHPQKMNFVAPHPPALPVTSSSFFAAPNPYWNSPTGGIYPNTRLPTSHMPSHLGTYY

For test [2], the target named is ELF1 (UniProt P32519).
Test [3] addresses T2, ELK4 (UniProt P28324-2).
T2 sequence: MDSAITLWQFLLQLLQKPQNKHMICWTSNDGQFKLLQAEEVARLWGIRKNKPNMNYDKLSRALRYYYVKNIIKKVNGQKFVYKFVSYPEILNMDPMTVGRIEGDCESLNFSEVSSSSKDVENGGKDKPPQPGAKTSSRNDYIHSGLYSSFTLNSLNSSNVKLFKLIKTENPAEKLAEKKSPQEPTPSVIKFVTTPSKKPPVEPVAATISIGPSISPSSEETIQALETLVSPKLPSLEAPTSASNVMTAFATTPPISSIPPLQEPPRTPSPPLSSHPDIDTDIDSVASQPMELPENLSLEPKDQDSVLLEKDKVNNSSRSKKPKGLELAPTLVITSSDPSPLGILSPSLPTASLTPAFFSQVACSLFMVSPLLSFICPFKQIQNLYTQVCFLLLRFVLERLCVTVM

The target in test [4] is T3, ETV4 (UniProt P43268).
T3 sequence: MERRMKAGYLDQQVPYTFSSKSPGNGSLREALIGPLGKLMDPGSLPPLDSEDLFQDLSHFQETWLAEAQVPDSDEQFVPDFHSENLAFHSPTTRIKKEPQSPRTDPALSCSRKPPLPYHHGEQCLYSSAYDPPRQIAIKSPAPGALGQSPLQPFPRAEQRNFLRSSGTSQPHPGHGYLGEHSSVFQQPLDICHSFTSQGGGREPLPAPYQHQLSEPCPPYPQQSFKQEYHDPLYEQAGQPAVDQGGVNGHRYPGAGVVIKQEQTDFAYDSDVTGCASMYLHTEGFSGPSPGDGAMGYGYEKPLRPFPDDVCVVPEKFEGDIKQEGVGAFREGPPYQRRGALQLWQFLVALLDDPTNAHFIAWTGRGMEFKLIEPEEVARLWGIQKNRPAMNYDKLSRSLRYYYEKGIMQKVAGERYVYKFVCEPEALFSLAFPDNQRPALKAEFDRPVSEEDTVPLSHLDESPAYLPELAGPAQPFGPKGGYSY

Test [5] concerns the target ETV1 (UniProt P50549).
The target of test [6] is T4, ERF (UniProt P50548).
T4 sequence: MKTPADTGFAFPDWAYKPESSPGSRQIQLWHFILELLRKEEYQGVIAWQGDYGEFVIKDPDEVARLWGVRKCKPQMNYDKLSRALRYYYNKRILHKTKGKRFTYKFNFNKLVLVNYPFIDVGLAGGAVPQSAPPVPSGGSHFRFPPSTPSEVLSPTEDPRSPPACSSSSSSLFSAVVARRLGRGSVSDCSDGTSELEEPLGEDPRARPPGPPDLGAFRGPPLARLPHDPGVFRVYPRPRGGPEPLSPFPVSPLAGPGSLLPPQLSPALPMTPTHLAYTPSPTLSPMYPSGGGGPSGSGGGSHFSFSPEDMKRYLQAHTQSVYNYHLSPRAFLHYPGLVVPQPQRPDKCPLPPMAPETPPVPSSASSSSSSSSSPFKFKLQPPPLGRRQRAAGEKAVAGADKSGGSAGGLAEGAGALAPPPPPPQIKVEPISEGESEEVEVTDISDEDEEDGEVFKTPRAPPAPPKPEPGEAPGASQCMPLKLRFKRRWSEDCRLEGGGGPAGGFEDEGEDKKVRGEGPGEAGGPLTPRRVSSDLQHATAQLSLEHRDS

The list shows a part of the results, in another mix than the full data. For part of these data: At the low end of the ranking the order means little. This is one part of the list. For part of these data: The exact form of the protein is not confirmed.

For the sequence AGTGTA, the binding signal in test [1] stood at 0.984; in test [2] it was 0.984; in test [3], 0.893; in test [4] it was 1.1; in test [5], 0.936; in test [6] it was 0.984.

For the sequence GCGATT, the binding signal worked out at 0.91 in test [1]; 0.893 in test [2]; 0.964 in test [3]; 0.981 in test [4]; 0.927 in test [5]; 0.881 in test [6].

For CCAAAG, the binding signal amounted to 0.887 in test [1]; 0.975 in test [2]; 0.955 in test [3]; 0.974 in test [4]; 0.888 in test [5]; 0.844 in test [6].

Take ATGGGA: the binding signal stood at 0.875 in test [1]; 0.981 in test [2]; 0.889 in test [3]; 0.994 in test [4]; 0.99 in test [5]; 0.897 in test [6].

For the sequence TCGAAG, the binding signal in test [1] came to 0.787; in test [2], 0.905; in test [3] it was 0.909; in test [4], 0.912; in test [5], 0.918; in test [6], 0.963.

For the sequence ACTGGG, the binding signal in test [1] was found to be 0.872; in test [2], 0.836; in test [3], 0.852; in test [4] it was 0.851; in test [5] it was 0.864; in test [6], 0.831.

TGACGG: the binding signal was determined as 0.884 in test [1]; 0.937 in test [2]; 0.916 in test [3]; 0.908 in test [4]; 0.937 in test [5]; 0.985 in test [6].

For the sequence AAGGCC, the binding signal in test [1] came out at 0.914; in test [2] it was 0.947; in test [3], 0.857; in test [4], 0.886; in test [5], 0.885; in test [6], 0.887.

For TGTAGA, the binding signal in test [1] stood at 0.912; in test [2], 0.962; in test [3], 0.949; in test [4], 0.935; in test [5] it was 0.911; in test [6] it was 0.961.

For AGTCTT, the binding signal was 0.918 in test [1]; 0.926 in test [2]; 0.884 in test [3]; 0.931 in test [4]; 0.872 in test [5]; 1.01 in test [6].

For AGATGT, the binding signal came out at 0.904 in test [1]; 0.936 in test [2]; 0.926 in test [3]; 0.92 in test [4]; 0.829 in test [5]; 0.943 in test [6].

Turning to ATGCCT, the binding signal in test [1] was found to be 1.48; in test [2], 1.35; in test [3], 1.49; in test [4], 1.32; in test [5], 1.33; in test [6], 1.42.

Consider CGCTAA, for which the binding signal in test [1] worked out at 0.94; in test [2], 0.93; in test [3] it was 0.908; in test [4] it was 0.912; in test [5], 0.857; in test [6], 0.986.

Take ACGCCA: the binding signal in test [1] came to 0.879; in test [2] it was 0.924; in test [3] it was 0.995; in test [4], 0.869; in test [5], 0.873; in test [6] it was 0.932.

GACTTA: the binding signal in test [1] is 0.93; in test [2] it was 0.955; in test [3], 1; in test [4], 0.938; in test [5], 0.891; in test [6] it was 0.994.

Turning to AGCCCA, the binding signal in test [1] is 0.93; in test [2] it was 0.974; in test [3], 0.944; in test [4] it was 1; in test [5], 0.946; in test [6] it was 0.999.

With GCGAAA, the binding signal was 0.939 in test [1]; 0.951 in test [2]; 0.953 in test [3]; 0.965 in test [4]; 0.88 in test [5]; 0.904 in test [6].

Regarding AGCTTG, the binding signal amounted to 0.892 in test [1]; 0.991 in test [2]; 0.898 in test [3]; 0.965 in test [4]; 0.932 in test [5]; 0.96 in test [6].

With AGGTGT, the binding signal in test [1] was found to be 0.827; in test [2], 0.763; in test [3], 0.807; in test [4], 0.825; in test [5] it was 0.884; in test [6], 0.827.

Regarding CGAACG, the binding signal in test [1] came out at 0.983; in test [2] it was 0.974; in test [3], 0.901; in test [4], 0.985; in test [5], 0.989; in test [6], 1.11.

For the sequence GACTCG, the binding signal stood at 0.833 in test [1]; 0.92 in test [2]; 0.921 in test [3]; 0.894 in test [4]; 0.969 in test [5]; 0.878 in test [6].

AAAGTC: the binding signal was determined as 0.93 in test [1]; 0.93 in test [2]; 1.08 in test [3]; 0.953 in test [4]; 0.992 in test [5]; 0.956 in test [6].

Regarding GCAGCC, the binding signal in test [1] stood at 1.04; in test [2] it was 0.993; in test [3], 1.11; in test [4], 0.943; in test [5], 0.927; in test [6], 0.984.
